The list shows a part of the results.
Tests used:
Assay in all cases: log2 fold change, soluble protein after heating vs DMSO (PISA); higher = thermal stabilisation; K562 cells, 10 uM, 30 min; active = over 0.2 and 3.5 SD of the protein, either way, in both replicates (recomputed)
[1] = compound: COC1=CC=C(C=C1)CN2C=CC3=C2C=C(C=C3)C(=O)NO
How it was run: (§1)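 Soluble protein was defined as the supernatant after 21,000xg for 90 min. It came from K562 cells at 2×10^6 cells/mL given 10 μM compound for 30 min, heated in aliquots for 3 min across 48°C-58°C, pooled, and extracted in PBS with 0.5% NP-40 at 4°C, and was quantified by TMTpro 16plex LC-MS/MS with equalised channel sums. Thermal stability against control samples, from duplicates, is reported as log2 fold change.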

By UniProt entry, the sequences of proteins in these tests, tags left out. Where a name states a change or a piece, a line headed by the entry shows the natural chain unless it says otherwise.
UniProt Q9H7L9: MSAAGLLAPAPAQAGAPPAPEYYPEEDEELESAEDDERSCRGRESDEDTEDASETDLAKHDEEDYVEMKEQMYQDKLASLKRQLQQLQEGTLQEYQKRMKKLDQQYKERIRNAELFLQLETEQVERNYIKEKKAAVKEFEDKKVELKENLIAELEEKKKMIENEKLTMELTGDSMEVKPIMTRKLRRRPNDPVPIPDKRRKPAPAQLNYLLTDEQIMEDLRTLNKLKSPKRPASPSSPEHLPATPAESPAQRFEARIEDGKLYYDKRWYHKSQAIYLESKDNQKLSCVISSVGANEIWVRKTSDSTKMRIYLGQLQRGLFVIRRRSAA
UniProt Q8WUJ0: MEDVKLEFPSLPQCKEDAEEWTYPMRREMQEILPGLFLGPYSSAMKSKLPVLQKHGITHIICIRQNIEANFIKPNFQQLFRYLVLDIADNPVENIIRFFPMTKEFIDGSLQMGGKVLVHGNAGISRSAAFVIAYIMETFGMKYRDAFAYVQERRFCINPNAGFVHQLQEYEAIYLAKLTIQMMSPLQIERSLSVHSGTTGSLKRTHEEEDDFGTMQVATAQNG

[2] = compound: CON(C)C(=O)N1N=C(c2cc(F)ccc2F)S[C@@]1(CCCN)c1ccccc1 [filanesib]
How it was run: as §1

[3] = compound: CO[C@H]1C[C@@H]2CC[C@@H](C)[C@@](O)(O2)C(=O)C(=O)N2CCCC[C@H]2C(=O)O[C@H]([C@H](C)C[C@@H]2CC[C@H](n3cnnn3)[C@H](OC)C2)CC(=O)[C@H](C)/C=C(\C)[C@@H](O)[C@@H](OC)C(=O)[C@H](C)C[C@H](C)/C=C/C=C/C=C/1C [zotarolimus]
How it was run: as §1

[4] = compound: COc1cc(C(=O)O)ccc1NC(=O)[C@@H]1N[C@@H](CC(C)(C)C)[C@](C#N)(c2ccc(Cl)cc2F)[C@H]1c1cccc(Cl)c1F [idasanutlin]
How it was run: as §1

[5] = compound: COc1cc(Nc2ncc3c(n2)-c2ccc(Cl)cc2C(c2c(F)cccc2OC)=NC3)ccc1C(=O)O [alisertib]
How it was run: as §1

[6] = compound: COc1cc2ncnc(Nc3ccc(F)c(Cl)c3)c2cc1OCCCN1CCOCC1 [gefitinib]
How it was run: as §1

[7] = compound: COc1cccc2cc(-c3nc([C@H]4CC[C@H](C(=O)O)CC4)n4ncnc(N)c34)[nH]c12
How it was run: as §1

[8] = compound: CS(=O)(=O)c1ccc(-c2cnc(N)c(C(=O)Nc3ccccc3)n2)cc1
How it was run: as §1

[9] = compound: C[C@@H](Oc1cc(-c2cnn(C3CCNCC3)c2)cnc1N)c1c(Cl)ccc(F)c1Cl [crizotinib]
How it was run: as §1

[10] = compound: C[C@@H]1COCCN1C2=NC(=NC(=C2)C3(CC3)S(=O)(=O)C)C4=C5C=CNC5=CC=C4
How it was run: as §1

[11] = compound: C[C@H](C1=CC=C(C=C1)C(=O)NC2=C3C=CNC3=NC=C2)N
How it was run: as §1

[12] = compound: C[C@H](Nc1ncnc2nc[nH]c12)c1cc2cccc(Cl)c2c(=O)n1-c1ccccc1 [duvelisib]
How it was run: as §1

[13] = compound: Cc1cc(Nc2cc(N3CCN(C)CC3)nc(Sc3ccc(NC(=O)C4CC4)cc3)n2)n[nH]1 [tozasertib]
How it was run: as §1

[14] = compound: Cc1cc(SCc2sc(-c3ccc(C(F)(F)F)cc3)nc2C)ccc1OCC(=O)O
How it was run: as §1

[15] = compound: Cc1ccc(-n2nc(C(C)(C)C)cc2NC(=O)Nc2ccc(OCCN3CCOCC3)c3ccccc23)cc1 [doramapimod]
How it was run: as §1

[16] = compound: Cc1ccc(C(=O)N(CCCN)[C@@H](c2nc3cc(Cl)ccc3c(=O)n2Cc2ccccc2)C(C)C)cc1 [ispinesib]
How it was run: as §1

[17] = compound: COc1cc2nc(-c3cc(F)ccc3O)nc(N[C@@H]3CNC[C@H]3C(C)(C)O)c2cc1OC
How it was run: as §1

[18] = compound: CS(=O)(=O)CCNCc1ccc(-c2ccc3ncnc(Nc4ccc(OCc5cccc(F)c5)c(Cl)c4)c3c2)o1 [lapatinib]
How it was run: as §1

[19] = compound: CS(=O)(=O)N1CCN(Cc2cc3nc(-c4cccc5[nH]ncc45)nc(N4CCOCC4)c3s2)CC1 [pictilisib]
How it was run: as §1

[20] = compound: Cc1cc(Nc2cc(CN3CCOCC3)c3nc(C)c(Cc4ccc(Cl)cc4F)n3n2)n[nH]1 [gandotinib]
How it was run: as §1

Measured: log2 fold change

SUDS3 (UniProt Q9H7L9)
inactive: [1] 0.044 | [2] 0.05 | [3] 0.066 | [4] -0.075 | [5] 0.034 | [6] 0.066 | [7] 0.047 | [8] 0.064 | [9] 0.032 | [10] 0.562 | [11] -0.035 | [12] 0.289 | [13] 0.017 | [14] -0.12 | [15] -0.035 | [16] -0.186

SYK (UniProt P43405)
inactive: [1] 0.085 | [3] 0.066 | [4] 0.25 | [17] 0.204 | [18] 0.06 | [10] -0.093 | [11] 0.053 | [14] 0.405 | [15] 0.179 | [16] -0.216

STYX (UniProt Q8WUJ0)
inactive: [19] 0.121 | [12] 0.104 | [20] -0.084 | [13] 0.115 | [14] 0.194 | [16] 0.192

— the supplement of paper PMC10849652
